# Assay results

The results are deposited in PubChem (AID504749; NCATS, 2011).

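A panel of P. falciparum strains inside erythrocytes is exposed to compounds for three days, then a DNA-binding dye reports the amount of parasite DNA. Each compound was titrated across a series from about 0.000037 to 29 µM. The number is the fitted AC50, the concentration giving a half-maximal change in signal; a lower value means higher potency, whether the curve shows a decrease or an increase. Calls follow the curve class and fit quality: every row here is inconclusive, covering signal-raising curves and weak, poorly fitted, partial or highest-dose-only inhibition curves.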

Values are in µM. Every entry below has the call inconclusive. These entries are mostly ones the record files as inconclusive; other results of the assay are not listed here. A potency from a partial, single-point or poor curve is only a rough figure.

| # | Compound | setting | fitted potency (µM) | curve |
|---|---|---|---|---|
| 1 | `O=C(CCN1CCN(CCO)CC1)N1c2ccccc2Sc2ccc(C(F)(F)F)cc21` | 3D7 | 12.59 | inhibitor, single point |
| 2 | `O=C(CCN1CCN(CCO)CC1)N1c2ccccc2Sc2ccc(C(F)(F)F)cc21` | DFO2036 | 17.78 | inhibitor, single point |
| 3 | `O=C(CCN1CCN(CCO)CC1)N1c2ccccc2Sc2ccc(C(F)(F)F)cc21` | CP217 | 8.912 | inhibitor, partial curve |
| 4 | `O=C(CCN1CCN(CCO)CC1)N1c2ccccc2Sc2ccc(C(F)(F)F)cc21` | CP250 | 11.22 | inhibitor, single point |
| 5 | `O=C(CCN1CCN(CCO)CC1)N1c2ccccc2Sc2ccc(C(F)(F)F)cc21` | P94_40 | 11.22 | inhibitor, single point |
| 6 | `O=C(CCN1CCN(CCO)CC1)N1c2ccccc2Sc2ccc(C(F)(F)F)cc21` | PC49 | 11.22 | inhibitor, single point |
| 7 | `O=C(CCN1CCN(CCO)CC1)N1c2ccccc2Sc2ccc(C(F)(F)F)cc21` | CP194 | 16.94 | inhibitor, single point |
| 8 | `O=C(CCN1CCN(CCO)CC1)N1c2ccccc2Sc2ccc(C(F)(F)F)cc21` | PC26 | 13.46 | inhibitor, partial curve |
| 9 | `O=C(CCN1CCN(CCO)CC1)N1c2ccccc2Sc2ccc(C(F)(F)F)cc21` | CP252 | 11.22 | inhibitor, partial curve |
| 10 | `O=C(CCN1CCN(CCO)CC1)N1c2ccccc2Sc2ccc(C(F)(F)F)cc21` | TAB165 | 17.78 | inhibitor, single point |
| 11 | `O=C(CCN1CCN(CCO)CC1)N1c2ccccc2Sc2ccc(C(F)(F)F)cc21` | DIV30 | 7.569 | inhibitor, partial curve |
| 12 | `O=C(CCN1CCN(CCO)CC1)N1c2ccccc2Sc2ccc(C(F)(F)F)cc21` | CP238 | 10 | inhibitor, single point |
| 13 | `Nc1ccc(S(=O)(=O)Nc2ncccn2)cc1` | CP215 | 6.424 | inhibitor, single point |
| 14 | `Nc1ccc(S(=O)(=O)Nc2ncccn2)cc1` | CP315 | 1.438 | inhibitor, single point |
| 15 | `CC(=O)N1CC(O)CC1C(=O)O` (stereo not given) | CP260 | 17.78 | inhibitor, single point |
| 16 | `CC(=O)N1CC(O)CC1C(=O)O` (stereo not given) | TAB113 | 3.548 | inhibitor, single point |
| 17 | `CCCCCC(C)N` (stereo not given) | P93_24 | 17.78 | inhibitor, single point |
| 18 | `CCCCCC(C)N` (stereo not given) | 3D7 | 10 | inhibitor, single point |
| 19 | `CCCCCC(C)N` (stereo not given) | CP217 | 17.78 | inhibitor, single point |
| 20 | `CCCCCC(C)N` (stereo not given) | CP237 | 11.22 | inhibitor, single point |
| 21 | `CCCCCC(C)N` (stereo not given) | PAD | 15.85 | inhibitor, single point |
| 22 | `CCCCCC(C)N` (stereo not given) | CP191 | 17.78 | inhibitor, single point |
| 23 | `CCCCCC(C)N` (stereo not given) | CP335 | 16.94 | inhibitor, single point |
| 24 | `CCCCCC(C)N` (stereo not given) | AA1029 | 17.78 | inhibitor, single point |
| 25 | `CCCCCC(C)N` (stereo not given) | ECU | 17.78 | inhibitor, single point |
| 26 | `CCCCCC(C)N` (stereo not given) | TAB109 | 17.78 | inhibitor, single point |
| 27 | `CCCCCC(C)N` (stereo not given) | AS120 | 11.22 | inhibitor, single point |
| 28 | `CCCCCC(C)N` (stereo not given) | P94_40 | 11.22 | inhibitor, single point |
| 29 | `CCCCCC(C)N` (stereo not given) | ATS189 | 17.78 | inhibitor, single point |
| 30 | `C[C@]12C=CC(=O)C=C1CC[C@@H]1[C@@H]2CC[C@@]2(C)[C@H]1CC[C@]2(C)O` | GB4 | 19.01 | inhibitor, single point |
| 31 | `C[C@]12C=CC(=O)C=C1CC[C@@H]1[C@@H]2CC[C@@]2(C)[C@H]1CC[C@]2(C)O` | CP201 | 19.01 | inhibitor, single point |
| 32 | `C[C@]12C=CC(=O)C=C1CC[C@@H]1[C@@H]2CC[C@@]2(C)[C@H]1CC[C@]2(C)O` | CP325 | 16.94 | inhibitor, single point |

Some entries from above, unchanged:

* CCCCCC(C)N (stereo not given) [CP237] | fitted potency 11.22 µM (inhibitor, single point)
* O=C(CCN1CCN(CCO)CC1)N1c2ccccc2Sc2ccc(C(F)(F)F)cc21 [CP194] | fitted potency 16.94 µM (inhibitor, single point)